Measured values: article PMC6332090, “Synthesis and Preliminary Evaluation of N-Oxide Derivatives for the Prevention of Atherothrombotic Events” (Molecules, 2015)
“And” between values parts separate entries of the source, which are not always exact repeats. Identical values can stand only once.

Test: In vitro nitric oxide production: nitrite quantification by Griess reaction with L-cysteine
Details: 1 h at 37 °C, pH 7.4 buffered water, 1:50 molar excess of L-cysteine, compound 10^−4 M, mean ± SEM
In the case of “(E)-3-((2-(3-((2-Acetoxybenzoyl)oxy)benzoyl)hydrazono)methyl)-4-methyl-1,2,5-oxadiazole 2-oxide [Compound 4a]”, the “NO Release Data %NO2− (mol/mol), 50 × 10^−4 M L-Cys” value (from here on “NO Release Data %NO2− (mol/mol)”) is reported as 2.2 ± 0.4%. In the case of `CC(=O)Oc1ccccc1C(=O)Oc1cccc(C(=O)N/N=C/c2c(-c3ccccc3)no[n+]2[O-])c1` [Compound 9a, (E)-3-((2-(3-((2-Acetoxybenzoyl)oxy)benzoyl)hydrazono)methyl)-4-phenyl-1,2,5-oxadiazole 2-oxide], the “NO Release Data %NO2− (mol/mol)” value is reported as 7.0 ± 0.8%. In the case of “5-((2-(3-Hydroxybenzoyl)hydrazono)methyl)benzo[c][1,2,5]oxadiazole 1-oxide [Compound 13a]”, the “NO Release Data %NO2− (mol/mol)” value is reported as 0%. For “(E)-3-((2-(4-((2-Acetoxybenzoyl)oxy)benzoyl)hydrazono)methyl)-4-methyl-1,2,5-oxadiazole 2-oxide [Compound 4b]”, the “NO Release Data %NO2− (mol/mol)” value was 1.8 ± 1.7%. In the case of “3-((2-(4-Hydroxybenzoyl)hydrazono)methyl)-4-methyl-1,2,5-oxadiazole 2-oxide [Compound 3b]”, the “NO Release Data %NO2− (mol/mol)” value is reported as 1.9 ± 1.1%. In the case of `O=C(NN=Cc1c(-c2ccccc2)no[n+]1[O-])c1ccc(O)cc1` [Compound 8b, 3-((2-(4-Hydroxybenzoyl)hydrazono)methyl)-4-phenyl-1,2,5-oxadiazole 2-oxide], the “NO Release Data %NO2− (mol/mol)” value is reported as 7.5 ± 0.9%. For `O=C(NN=Cc1c(-c2ccccc2)no[n+]1[O-])c1cccc(O)c1` [Compound 8a, 3-((2-(3-Hydroxybenzoyl)hydrazono)methyl)-4-phenyl-1,2,5-oxadiazole 2-oxide], the “NO Release Data %NO2− (mol/mol)” value was 7.6 ± 1.2%. For `CC(=O)Oc1ccccc1C(=O)O` [ASA, acetylsalicylic acid, reference compound], the “NO Release Data %NO2− (mol/mol)” value was 0%. For `O=[N+]([O-])O[C@H]1CO[C@H]2[C@@H]1OC[C@H]2O[N+](=O)[O-]` [DNS, Isosorbide dinitrate, reference compound], the “NO Release Data %NO2− (mol/mol)” value was 10.5% and 10.5 ± 0.7%. In the case of “3-((2-(3-Hydroxybenzoyl)hydrazono)methyl)-4-methyl-1,2,5-oxadiazole 2-oxide [Compound 3a]”, the “NO Release Data %NO2− (mol/mol)” value is reported as 2.0 ± 0.7%. In the case of `CC(=O)Oc1ccccc1C(=O)Oc1ccc(C(=O)N/N=C/c2ccc3c(c2)no[n+]3[O-])cc1` [Compound 14b, (E)-5-((2-(4-((2-Acetoxybenzoyl)oxy)benzoyl)hydrazono)methyl)benzo[c][1,2,5]oxadiazole 1-oxide], the “NO Release Data %NO2− (mol/mol)” value is reported as 0%. For `O=C(NN=Cc1ccc2c(c1)no[n+]2[O-])c1ccc(O)cc1` [Compound 13b, 5-((2-(4-Hydroxybenzoyl)hydrazono)methyl)benzo[c][1,2,5]oxadiazole 1-oxide], the “NO Release Data %NO2− (mol/mol)” value was 0%. With `CC(=O)Oc1ccccc1C(=O)Oc1ccc(C(=O)N/N=C/c2c(-c3ccccc3)no[n+]2[O-])cc1` [Compound 9b, (E)-3-((2-(4-((2-Acetoxybenzoyl)oxy)benzoyl)hydrazono)methyl)-4-phenyl-1,2,5-oxadiazole 2-oxide] the “NO Release Data %NO2− (mol/mol)” value was 7.9 ± 1.3%. For `CC(=O)Oc1ccccc1C(=O)Oc1cccc(C(=O)N/N=C/c2ccc3c(c2)no[n+]3[O-])c1` [Compound 14a, (E)-5-((2-(3-((2-Acetoxybenzoyl)oxy)benzoyl)hydrazono)methyl)benzo[c][1,2,5]oxadiazole 1-oxide], the “NO Release Data %NO2− (mol/mol)” value was 0%.
